Data: the supplement of paper PMC6143611
Structures can show the parent of a compound that is named as a salt. ± gives the uncertainty stated by the source. Some of the results follow. Baselines shift from plate to plate; read single values as rough.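 Larvae carried a heat-shock-induced fluorescent stripe in rod outer segments, set at 6 dpf; the shedding distance runs from this stripe to the outer segment tip, measured in confocal stacks, about three fish per compound. The controls got 0.2% DMSO vehicle, and the paper flagged compounds with at least a 20% change against the same-week control and p < 0.001 (Dunnett test on mixed-effects models).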

Columns and labels:
[1] = system: Danio rerio larva rod photoreceptor outer segment; test: rod outer segment growth distance Dg, difference from same-week DMSO control mean; higher = more outer segment growth; settings: 20 µM; treatment time: 4 days (6-10 dpf)
[2] = system: Danio rerio larva rod photoreceptor outer segment; test: rod outer segment shedding distance Ds, difference from same-week DMSO control mean; higher = less outer segment shedding; settings: 20 µM; treatment time: 4 days (6-10 dpf)

| SMILES | rod outer segment growth distance Dg [1] [um] | rod outer segment shedding distance Ds [2] [um] |
| --- | --- | --- |
| O=C(O)Cc1ccccc1Nc1c(Cl)cccc1Cl [Diclofenac Potassium] | 0.93 ± 0.18 | -0.22 ± 0.15 |
| COc1ccc(-c2nc3cc(C4=NNC(=O)CC4C)ccc3[nH]2)cc1 (stereo not given) [Pimobendan] | -0.89 ± 0.18 | -0.53 ± 0.19 |
| CNC[C@H](O)[C@@H](O)[C@H](O)[C@H](O)CO [Meglumine] | 0.82 ± 0.28 | 0.18 ± 0.27 |
| NS(=O)(=O)c1cc2c(cc1Cl)NC(C(Cl)Cl)NS2(=O)=O (stereo not given) [Trichlormethiazide] | 0.77 ± 0.2 | -0.11 ± 0.21 |
| Cc1cc(C(C)(C)C)cc(C)c1CC1=NCCN1 [Xylometazoline HCl] | -0.32 ± 0.29 | -0.66 ± 0.17 |
| COc1cccc2c1C(=O)c1c(O)c3c(c(O)c1C2=O)C[C@@](O)(C(=O)CO)C[C@@H]3O[C@H]1C[C@H](N)[C@H](O)[C@H](C)O1 [Doxorubicin (Adriamycin)] | -0.07 ± 0.18 | -2.32 ± 0.24 |
| CNC(=O)c1ccccc1Sc1ccc2c(/C=C/c3ccccn3)n[nH]c2c1 [Axitinib] | -1.2 ± 0.25 | -1.74 ± 0.27 |
| N#CC1(c2ccc(NC(=O)c3cccnc3NCc3ccncc3)cc2)CCCC1 [Apatinib] | -0.48 ± 0.17 | 0.44 ± 0.24 |
| Cc1ccc(NC(=O)c2ccc(CN3CCN(C)CC3)cc2)cc1Nc1nccc(-c2cccnc2)n1 [Imatinib Mesylate (STI571)] | -0.12 ± 0.18 | -0.84 ± 0.23 |
| O=C(O)c1cc(/N=N/c2ccc(S(=O)(=O)Nc3ccccn3)cc2)ccc1O [Sulfasalazine] | 0.01 ± 0.21 | 0.15 ± 0.14 |
| CC(C)C[C@H](NC(=O)[C@H](CCc1ccccc1)NC(=O)CN1CCOCC1)C(=O)N[C@@H](Cc1ccccc1)C(=O)N[C@@H](CC(C)C)C(=O)[C@@]1(C)CO1 [Carfilzomib (PR-171)] | 0.25 ± 0.16 | 0.03 ± 0.13 |
| N#CSc1cc(SC#N)c(N)nc1N | 0.3 ± 0.26 | -1.48 ± 0.4 |
| CN1c2cc(O)c(N=NC(N)=O)cc2CC1S(=O)(=O)O (stereo not given) [Carbazochrome sodium sulfonate (AC-17)] | -0.72 ± 0.21 | -0.43 ± 0.17 |
| CC1C(=O)OC2C(O)C34C5CC(C(C)(C)C)C36C(OC(=O)C6O)OC4(C(=O)O5)C12O (stereo not given) [Ginkgolide B] | 1 ± 0.31 | -0.03 ± 0.24 |
| C[C@@](Cc1ccc(O)c(O)c1)(NN)C(=O)O [Carbidopa] | 0.5 ± 0.23 | 0.28 ± 0.29 |
| O=C(C1CCCCC1)N1CC(=O)N2CCc3ccccc3C2C1 (stereo not given) [Praziquantel] | 0.45 ± 0.16 | 0.49 ± 0.15 |
| C[C@H](NC(=O)Cc1cc(F)cc(F)c1)C(=O)N[C@@H]1C(=O)N(C)c2ccccc2-c2ccccc21 | -1.42 ± 0.19 | -1.03 ± 0.14 |
| OC[C@H]1OC(O)[C@H](O)[C@@H](O)[C@@H]1O (stereo not given in full) [Dextrose] | 0.76 ± 0.22 | 0.11 ± 0.22 |
| C[C@H](N[C@@H](CCc1ccccc1)C(=O)O)C(=O)N1CCC[C@H]1C(=O)O [Enalaprilat Dihydrate] | -0.2 ± 0.18 | 0.18 ± 0.19 |
| CN[C@@H](C)C(=O)N[C@H](C(=O)N1CCC[C@H]1C(=O)Nc1snnc1-c1ccccc1)C1CCCCC1 | -0.25 ± 0.17 | 0.1 ± 0.13 |
| O=C1[C@H](CC[C@H](O)c2ccc(F)cc2)[C@@H](c2ccc(O)cc2)N1c1ccc(F)cc1 [Ezetimibe] | -0.8 ± 0.18 | 0.42 ± 0.18 |
| Nc1ncnc2c1ncn2[C@@H]1O[C@H](CO)[C@@H](O)[C@H]1O [Adenosine] | -0.44 ± 0.26 | -0.19 ± 0.16 |
| COCCc1ccc(OCC(O)CNC(C)C)cc1 (stereo not given) [Metoprolol Tartrate] | -0.73 ± 0.19 | -1.61 ± 0.28 |
| COc1cc(NC(=O)c2ccccn2)ccc1Cl | -0.12 ± 0.3 | 0.07 ± 0.17 |
| Cc1cc(C(C)(C)C)c(O)c(C)c1CC1=NCCN1 [Oxymetazoline HCl] | 0.26 ± 0.27 | 0.42 ± 0.29 |
| NS(=O)(=O)c1cc(Cl)c(Cl)c(S(N)(=O)=O)c1 [Dichlorphenamide] | -2.18 ± 0.49 | -1.97 ± 0.42 |
| CC[C@H]1OC(=O)[C@H](C)[C@@H](O[C@H]2C[C@@](C)(OC)[C@@H](O)[C@H](C)O2)[C@H](C)[C@@H](O[C@@H]2O[C@H](C)C[C@H](N(C)C)[C@H]2O)[C@](C)(O)C[C@@H](C)C(=O)[C@H](C)[C@@H](O)[C@]1(C)O [Erythromycin] | -0.28 ± 0.24 | 0.42 ± 0.2 |
| CN1C(C(=O)Nc2ccccn2)=C(O)c2sc(Cl)cc2S1(=O)=O [Lornoxicam] | 1.08 ± 0.25 | -0.92 ± 0.29 |
| Cn1cnc2c(F)c(Nc3ccc(Br)cc3F)c(C(=O)NOCCO)cc21 | -0.36 ± 0.13 | 0.38 ± 0.13 |
| C[C@H](NC(=O)Cc1cc(F)cc(F)c1)C(=O)N[C@H](C(=O)OC(C)(C)C)c1ccccc1 | 0.75 ± 0.32 | -1.73 ± 0.4 |

Full records as entered above. Values in the order: rod outer segment growth distance Dg [1] [um] | rod outer segment shedding distance Ds [2] [um]
O=C(O)c1cc(/N=N/c2ccc(S(=O)(=O)Nc3ccccn3)cc2)ccc1O [Sulfasalazine] is entered as 0.01 ± 0.21 | 0.15 ± 0.14
CN1C(C(=O)Nc2ccccn2)=C(O)c2sc(Cl)cc2S1(=O)=O [Lornoxicam] is entered as 1.08 ± 0.25 | -0.92 ± 0.29
